Reference: patent publication US20240293565A1 (BEIJING SINOTAU BIO PHARMACEUTICALS TECHNOLOGY, published 2024)
Residue numbers refer to the chain shown, from its start. No constants are given. Whether binding was seen depends on the method and setting. Some binding calls cover weakened binding; strength is not graded here. Values belong to the binder of their own block, whether it stands above or below them.

Amino acid sequences for entries named in this document (tags omitted). A change or cut given only in a name is not applied to a line headed by its entry. Chains listed by the source or under a name are the forms on record and can include a tag or linker. Residues count along the entry.
UniProt P21860, residues 20-643: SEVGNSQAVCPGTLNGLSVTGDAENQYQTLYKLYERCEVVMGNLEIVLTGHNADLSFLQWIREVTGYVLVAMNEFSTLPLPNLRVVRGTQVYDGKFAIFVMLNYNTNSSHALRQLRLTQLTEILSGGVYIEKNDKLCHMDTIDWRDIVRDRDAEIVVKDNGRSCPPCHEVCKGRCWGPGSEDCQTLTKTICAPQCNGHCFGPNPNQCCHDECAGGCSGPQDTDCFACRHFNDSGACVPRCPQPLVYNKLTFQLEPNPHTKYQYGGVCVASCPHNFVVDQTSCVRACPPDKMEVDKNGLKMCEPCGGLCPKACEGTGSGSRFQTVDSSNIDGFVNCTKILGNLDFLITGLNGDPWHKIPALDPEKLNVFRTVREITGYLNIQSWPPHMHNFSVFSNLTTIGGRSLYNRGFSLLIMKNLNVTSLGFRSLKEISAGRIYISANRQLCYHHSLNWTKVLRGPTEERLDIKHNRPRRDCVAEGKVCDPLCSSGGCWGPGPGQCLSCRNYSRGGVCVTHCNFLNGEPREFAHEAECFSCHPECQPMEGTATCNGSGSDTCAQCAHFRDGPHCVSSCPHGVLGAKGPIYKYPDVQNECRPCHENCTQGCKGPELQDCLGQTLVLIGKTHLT
Cynomolgus HER3 (G7PIG5, form named): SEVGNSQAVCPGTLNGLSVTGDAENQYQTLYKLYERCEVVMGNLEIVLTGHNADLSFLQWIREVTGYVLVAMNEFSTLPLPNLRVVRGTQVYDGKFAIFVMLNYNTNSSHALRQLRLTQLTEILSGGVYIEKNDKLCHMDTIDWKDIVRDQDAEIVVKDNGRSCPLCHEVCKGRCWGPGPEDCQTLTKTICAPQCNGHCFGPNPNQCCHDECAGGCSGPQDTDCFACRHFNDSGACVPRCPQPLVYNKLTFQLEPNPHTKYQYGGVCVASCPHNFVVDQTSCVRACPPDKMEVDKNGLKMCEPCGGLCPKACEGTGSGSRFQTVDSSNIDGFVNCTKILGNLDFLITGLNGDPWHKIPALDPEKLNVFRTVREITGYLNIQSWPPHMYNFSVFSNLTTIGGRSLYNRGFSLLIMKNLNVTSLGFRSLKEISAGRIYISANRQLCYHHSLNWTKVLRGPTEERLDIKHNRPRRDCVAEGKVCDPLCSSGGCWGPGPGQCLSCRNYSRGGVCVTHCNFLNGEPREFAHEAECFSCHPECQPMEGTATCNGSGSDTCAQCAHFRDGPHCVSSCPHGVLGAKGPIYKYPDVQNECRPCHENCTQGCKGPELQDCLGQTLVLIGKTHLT

What was measured:
Human HER3-huFc (human) [1] = target: Human HER3-huFc (human) (UniProt P21860); experiment: ELISA on HER3, chimeric antibody measured in parallel with the heat stress test
Human HER3-huFc (human) [2] = target: Human HER3-huFc (human) (UniProt P21860); experiment: ELISA on HER3, chimeric antibody measured in parallel with the freeze-thaw stress test
[3] = target: Cynomolgus HER3 (Cynomolgus) (UniProt G7PIG5); experiment: ELISA on coated cynomolgus HER3, luminescence readout
Human HER3-huFc (human) [4] = target: Human HER3-huFc (human) (UniProt P21860); experiment: summary of the ELISA results
[5] = target: Cynomolgus HER3 (Cynomolgus) (UniProt G7PIG5); experiment: summary of the ELISA results
Human HER3-huFc (human) [6] = target: Human HER3-huFc (human) (UniProt P21860); experiment: ELISA on coated Human HER3-huFc, luminescence readout
Human HER3-huFc (human) [7] = target: Human HER3-huFc (human) (UniProt P21860); experiment: ELISA on coated antigen
[8] = target: Cynomolgus HER3 (Cynomolgus) (UniProt G7PIG5); experiment: ELISA on coated antigen
Human HER3-huFc (human) [9] = target: Human HER3-huFc (human) (UniProt P21860); experiment: ELISA on coated human HER3, luminescence readout
Human HER3-huFc (human) [10] = target: Human HER3-huFc (human) (UniProt P21860); experiment: ELISA on HER3 after incubation of the antibody at 40 C for 0, 7, 14 days
Human HER3-huFc (human) [11] = target: Human HER3-huFc (human) (UniProt P21860); experiment: ELISA on HER3 after incubation of the antibody at pH 3.5 for 0, 2, 4, 6 h
Human HER3-huFc (human) [12] = target: Human HER3-huFc (human) (UniProt P21860); experiment: ELISA on HER3 after 0, 3, 5 cycles of freezing and thawing of the antibody

binding [3]: binds
binding (Human HER3-huFc (human) [4]): binds
binding [5]: binds
binding (Human HER3-huFc (human) [6]): binds
binding (Human HER3-huFc (human) [7]): binds
binding [8]: binds
binding (Human HER3-huFc (human) [9]): binds
B2: murine 3F8 (antibody, V domains shown)
VH: DVQLQESGPGLVKPSQSLSLTCSVTGYSITSAYYWNWIRQFPGDKLEWMGYISYDGRNNFNPSLKNRISITRDTSKNQFFLKLNSVTSGDTATYYCARDGDYDYFDYWGQGTTLTVSS
VL: DIQMTQTTSSLSASLGDRVTISCRASQDISNYLNWYQQKPDGTFKLLIYYTSILHSGVPSRFSGSGSGTDYSLTISNLEQEDIATYFCQQGDTLPPTFGAGTKLELK

binding (Human HER3-huFc (human) [10]): binds
binding (Human HER3-huFc (human) [11]): binds
binding (Human HER3-huFc (human) [12]): binds
B3: humanized 3F8 Clone 3 (antibody, human IgG1, kappa, V domains shown)
VH: QVQLQESGPGLVKPSETLSLTCTVSGYSITSAYYWNWIRQPFGKGLEWMGYISYDGRNNFNPSLKNRVSISRDTSKNQFSLKLSSVTAADTATYYCARDGDYDYFDYWGQGTTVTVSS
VL: DIQMTQSPSSLSASVGDRVTITCRASQDISNYLNWYQQKPGKAPKLLIYYTSILHSGVPSRFSGSGSGTDYTFTISSLQPEDIATYFCQQGDTLPPTFGGGTKLEIKR

More lines, now with the values behind:

B1: chimeric 3F8 (antibody, human IgG1, V domains shown)
VH: B2 VH
VL: B2 VL
notes: also called ch3F8; Ch3F8
binding (Human HER3-huFc (human) [1]): binds
binding (Human HER3-huFc (human) [2]): binds

B4: humanized 3F8 Clone 1 (antibody, human IgG1, kappa, V domains shown)
VH: B3 VH with F42P, M49I, S69T, R72V, T93V
VL: B3 VL
binding (Human HER3-huFc (human) [10]): binds
binding (Human HER3-huFc (human) [11]): binds
binding (Human HER3-huFc (human) [12]): binds

B5: humanized 3F8 Clone 2 (antibody, human IgG1, kappa, V domains shown)
VH: B3 VH with S69T, T93V
VL: B3 VL
binding (Human HER3-huFc (human) [10]): binds
binding (Human HER3-huFc (human) [11]): binds
binding (Human HER3-huFc (human) [12]): binds
